Measured values from paper doi:10.1101/2023.12.19.572386.
Results are given in words; binding and its absence hold for the method and conditions named. For some assays here: Binding seen in cells or lysates may run through a third protein. Some results given as binding are weak or reduced against the parent protein; the word gives no strength. Sequences can lack the tags named with a protein.

Key:
[1] = target: T1, FLAG-tagged human atlastin-1 (ATL1-FLAG) (human) (UniProt Q8WXF7); assay: co-IP
T1 sequence: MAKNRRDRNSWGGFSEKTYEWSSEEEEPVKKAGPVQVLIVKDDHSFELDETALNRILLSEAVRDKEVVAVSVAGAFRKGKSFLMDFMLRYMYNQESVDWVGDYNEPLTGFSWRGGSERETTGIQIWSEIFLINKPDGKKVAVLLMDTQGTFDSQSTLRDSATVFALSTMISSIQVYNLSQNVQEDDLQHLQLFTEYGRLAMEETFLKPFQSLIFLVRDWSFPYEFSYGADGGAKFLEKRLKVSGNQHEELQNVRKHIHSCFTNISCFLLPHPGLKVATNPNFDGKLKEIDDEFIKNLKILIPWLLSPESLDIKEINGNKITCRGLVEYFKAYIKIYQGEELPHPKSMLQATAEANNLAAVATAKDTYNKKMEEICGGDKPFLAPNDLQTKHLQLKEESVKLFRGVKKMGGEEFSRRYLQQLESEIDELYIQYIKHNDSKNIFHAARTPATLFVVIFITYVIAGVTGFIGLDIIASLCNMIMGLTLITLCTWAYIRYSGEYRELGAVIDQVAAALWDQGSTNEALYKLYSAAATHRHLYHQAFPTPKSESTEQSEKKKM

[2] = target: T1, FLAG-tagged human atlastin-1 (ATL1-FLAG) (human); assay: SEC

binding [1]: binds
binding [2]: binds
B1: SBP-tagged REEP1 (REEP1-SBP) (protein, UniProt Q9H902 1-201)
chain: MVSWIISRLVVLIFGTLYPAYYSYKAVKSKDIKEYVKWMMYWIIFALFTTAETFTDIFLCWFPFYYELKIAFVAWLLSPYTKGSSLLYRKFVHPTLSSKEKEIDDCLVQAKDRSYDALVHFGKRGLNVAATAAVMAASKGQGALSERLRSFSMQDLTTIRGDGAPAPSGPPPPGSGRASGKHGQPKMSRSASESASSSGTA
